# Patent US20230218559A1, “Compositions and Methods for Treating Aging and Age-Related Diseases and Symptoms” (The Regents of the University of California, priority 2014, published 2023)
# Test system: C. elegans
# Experiment: Oxidative stress in worms (DCF fluorescence, OxyBlot)
# Type: in vivo, Caenorhabditis elegans
# Settings: 8 mM
smiles,measurement,setting,value
"O=C(O)CCC(=O)C(=O)O [α-KG, α-ketoglutarate]",DCF fluorescence (ROS levels),"1 day, HT115 and OP50 fed worms, P=0.0007 and P=0.0012",higher
same,protein oxidation (OxyBlot),adult day 2 and day 3,no significant change
